# Record: PubChem BioAssay AID652259 (Drosophila RNAi Screening Center, 2013)
# Screen: 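Genome-wide hunt for genes that control Wingless pathway activity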 (primary screen)
# Cell system: Drosophila clone 8 imaginal disc epithelial cells
# Reagent: long dsRNA against Drosophila genes
# Challenge: pathway stimulated by co-transfected Wingless expression plasmid
# Detection: 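Firefly luciferase from a tcf-site Wingless reporter, measured alongside co-transfected Renilla luciferase that tracks transfection; pathway stimulated by a Wingless plasmid; the firefly-to-Renilla ratio is not deposited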
# Reading the numbers: firefly reporter light: higher = more Wg reporter light, before normalisation; Renilla control light: higher = more transfected or surviving cells
# Hit rule: 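Strong candidates differ from their plate mean by at least two out of four per-plate statistical tests; weak candidates meet just one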
# Meaning of the calls: active = candidate regulator (raises or lowers reporter); inactive = not a candidate
# In all, the deposit lists about 22,000 reagents; this is a random part of those that have a named target and a result. Of all reagents, 233 (1.1%) are marked active. 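Light values are raw, unnormalised plate reads; the ratio scores behind the reporter calls were not deposited.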 Not stated in the record: the amount of reagent, the time to read-out, the dose of the treatment.
target gene,amplicon,"firefly reporter light, replicate 1","firefly reporter light, replicate 2","Renilla control light, replicate 1","Renilla control light, replicate 2",Outcome
Ns3,DRSC18607,5016,9925,1792,3573,inactive
CG32369,DRSC10042,2178,7276,1108,2364,inactive
CG32369,DRSC10834,7394,,3114,,inactive
CG3520,DRSC04383,3382,6960,737,3060,inactive
CREG,DRSC16595,14405,,3808,,inactive
CG17359,DRSC10265,6669,,2570,,inactive
CG7394,DRSC10835,6492,,2661,,inactive
Ist1,DRSC09697,3649,,2225,,inactive
Synj,DRSC04526,9392,,2756,,inactive
zen,DRSC12632,16776,,3962,,inactive
CG13170,DRSC06298,4464,,2376,,inactive
Ugt302E1,DRSC15635,11906,,3968,,inactive
IFT52,DRSC03271,1707,5046,731,2320,inactive
CG8008,DRSC07053,7483,,1234,,inactive
Naa15-16,DRSC19440,4118,6396,1680,1770,inactive
Naa15-16,DRSC22846,7.84e5,8.62e5,2.32e5,3.20e5,inactive
CG8132,DRSC16383,21536,,6470,,inactive
CG9391,DRSC11858,11687,,3328,,inactive
Tbc1d22,DRSC15867,2221,4716,1089,1526,inactive
CG13558,DRSC04196,2006,6650,624,2292,inactive
CG33346,DRSC22898,5.53e5,4.82e5,2.22e5,95750,inactive
CG15546,DRSC15084,8980,,3620,,inactive
CG15546,DRSC22831,4.59e5,4.77e5,1.90e5,2.19e5,inactive
CG15044,DRSC19620,20934,,12336,,inactive
CG15044,DRSC21385,3.14e5,2.44e5,1.68e5,1.20e5,inactive
Cpr,DRSC03293,8536,,4135,,inactive
CG2694,DRSC18470,3805,8365,1448,2658,inactive
CRIF,DRSC11811,17040,,4612,,inactive

4 entries already listed, sorted by “Renilla control light, replicate 1”, low to high:
target gene,amplicon,"firefly reporter light, replicate 1","firefly reporter light, replicate 2","Renilla control light, replicate 1","Renilla control light, replicate 2",Outcome
Cpr,DRSC03293,8536,,4135,,inactive
CG15044,DRSC19620,20934,,12336,,inactive
CG15044,DRSC21385,3.14e5,2.44e5,1.68e5,1.20e5,inactive
CG15546,DRSC22831,4.59e5,4.77e5,1.90e5,2.19e5,inactive

Further records:
target gene,amplicon,"firefly reporter light, replicate 1","firefly reporter light, replicate 2","Renilla control light, replicate 1","Renilla control light, replicate 2",Outcome
CG5326,DRSC13568,2536,,1244,,inactive
CG5326,DRSC15770,3282,6646,1562,1866,inactive
Roc2,DRSC07313,10720,,3541,,inactive
CG4053,DRSC15538,16765,6.97e5,4848,2.87e5,inactive
CG13293,DRSC09967,1051,8915,1004,2688,inactive
CG34268,DRSC07874,4167,,1773,,inactive
Or94a,DRSC16772,13738,,10800,,inactive
alpha-Spec,DRSC08704,17190,,4123,,inactive
CG12011,DRSC08219,6835,,5366,,inactive
CG15445,DRSC20517,1620,4876,585,1820,inactive
CG4820,DRSC15654,15891,,4304,,inactive
Tim13,DRSC09848,8298,,3232,,inactive
pkm,DRSC19674,3628,9336,1239,3857,inactive
Sirt7,DRSC14294,2925,4969,1725,1171,inactive
eIF2beta,DRSC11341,4458,,1690,,inactive
CG10862,DRSC08170,5088,,2279,,inactive
PQBP1,DRSC14393,2717,4653,1168,1676,inactive
mRpS2,DRSC00550,3488,9176,1415,2899,inactive
CadN2,DRSC03062,2560,9333,1224,5036,inactive
CadN2,DRSC03063,2633,8054,944,4000,inactive
CadN2,DRSC03064,2775,8544,842,3746,inactive
